Measurements reported in article doi:10.1101/777128.
Results are given in words; binding and its absence hold for the method and conditions named. In cells and extracts the contact can be indirect. Some binding calls cover weakened binding; strength is not graded here. Where a sequence is shown, tags or fusion partners need not be part of it.

By UniProt entry, the sequences of proteins in these tests, tags left out.
UniProt Q61025: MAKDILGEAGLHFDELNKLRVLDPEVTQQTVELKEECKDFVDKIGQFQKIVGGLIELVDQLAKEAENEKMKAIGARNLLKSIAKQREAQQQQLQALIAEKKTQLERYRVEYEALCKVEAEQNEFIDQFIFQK
UniProt P46937: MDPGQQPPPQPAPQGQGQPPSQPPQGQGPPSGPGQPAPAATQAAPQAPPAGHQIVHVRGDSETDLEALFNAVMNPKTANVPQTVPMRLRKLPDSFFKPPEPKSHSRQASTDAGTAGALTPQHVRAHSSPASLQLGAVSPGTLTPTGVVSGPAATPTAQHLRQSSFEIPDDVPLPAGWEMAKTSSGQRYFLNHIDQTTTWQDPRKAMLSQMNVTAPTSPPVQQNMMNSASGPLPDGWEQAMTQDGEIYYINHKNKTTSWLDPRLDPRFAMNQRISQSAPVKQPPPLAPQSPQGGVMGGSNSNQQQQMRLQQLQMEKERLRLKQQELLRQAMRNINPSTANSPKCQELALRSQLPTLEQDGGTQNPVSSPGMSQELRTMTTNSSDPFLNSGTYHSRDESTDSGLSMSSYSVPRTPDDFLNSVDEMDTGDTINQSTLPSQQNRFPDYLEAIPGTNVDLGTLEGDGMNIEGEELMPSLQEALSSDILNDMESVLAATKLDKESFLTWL

T1: Flag-Amotl1 (UniProt Q9D4H4)
T1 sequence: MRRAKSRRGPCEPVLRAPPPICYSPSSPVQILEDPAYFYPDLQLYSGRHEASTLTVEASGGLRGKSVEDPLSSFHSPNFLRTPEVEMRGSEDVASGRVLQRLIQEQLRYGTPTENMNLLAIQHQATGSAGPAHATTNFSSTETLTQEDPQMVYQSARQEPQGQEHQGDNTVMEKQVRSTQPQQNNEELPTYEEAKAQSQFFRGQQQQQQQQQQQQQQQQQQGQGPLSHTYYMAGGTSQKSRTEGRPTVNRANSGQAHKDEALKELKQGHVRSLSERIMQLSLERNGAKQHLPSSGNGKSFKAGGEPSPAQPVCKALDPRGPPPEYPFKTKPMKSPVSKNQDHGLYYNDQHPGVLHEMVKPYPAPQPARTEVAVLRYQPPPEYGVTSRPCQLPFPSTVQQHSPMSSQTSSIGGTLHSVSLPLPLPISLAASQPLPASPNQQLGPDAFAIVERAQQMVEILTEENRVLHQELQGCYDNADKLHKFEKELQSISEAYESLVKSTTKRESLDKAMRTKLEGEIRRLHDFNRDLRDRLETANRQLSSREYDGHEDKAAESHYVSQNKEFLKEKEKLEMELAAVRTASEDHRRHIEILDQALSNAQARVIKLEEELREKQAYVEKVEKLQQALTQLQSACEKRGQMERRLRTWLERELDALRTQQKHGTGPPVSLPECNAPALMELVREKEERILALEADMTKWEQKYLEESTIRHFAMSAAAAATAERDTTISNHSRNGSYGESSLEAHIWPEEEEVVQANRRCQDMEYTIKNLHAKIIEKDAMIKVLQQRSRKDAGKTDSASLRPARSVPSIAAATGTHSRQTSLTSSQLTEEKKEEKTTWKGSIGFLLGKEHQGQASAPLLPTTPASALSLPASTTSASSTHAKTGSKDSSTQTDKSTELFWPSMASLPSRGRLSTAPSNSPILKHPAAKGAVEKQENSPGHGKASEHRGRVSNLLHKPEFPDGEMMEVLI

T2: IFT88-GFP (UniProt Q13099)
T2 sequence: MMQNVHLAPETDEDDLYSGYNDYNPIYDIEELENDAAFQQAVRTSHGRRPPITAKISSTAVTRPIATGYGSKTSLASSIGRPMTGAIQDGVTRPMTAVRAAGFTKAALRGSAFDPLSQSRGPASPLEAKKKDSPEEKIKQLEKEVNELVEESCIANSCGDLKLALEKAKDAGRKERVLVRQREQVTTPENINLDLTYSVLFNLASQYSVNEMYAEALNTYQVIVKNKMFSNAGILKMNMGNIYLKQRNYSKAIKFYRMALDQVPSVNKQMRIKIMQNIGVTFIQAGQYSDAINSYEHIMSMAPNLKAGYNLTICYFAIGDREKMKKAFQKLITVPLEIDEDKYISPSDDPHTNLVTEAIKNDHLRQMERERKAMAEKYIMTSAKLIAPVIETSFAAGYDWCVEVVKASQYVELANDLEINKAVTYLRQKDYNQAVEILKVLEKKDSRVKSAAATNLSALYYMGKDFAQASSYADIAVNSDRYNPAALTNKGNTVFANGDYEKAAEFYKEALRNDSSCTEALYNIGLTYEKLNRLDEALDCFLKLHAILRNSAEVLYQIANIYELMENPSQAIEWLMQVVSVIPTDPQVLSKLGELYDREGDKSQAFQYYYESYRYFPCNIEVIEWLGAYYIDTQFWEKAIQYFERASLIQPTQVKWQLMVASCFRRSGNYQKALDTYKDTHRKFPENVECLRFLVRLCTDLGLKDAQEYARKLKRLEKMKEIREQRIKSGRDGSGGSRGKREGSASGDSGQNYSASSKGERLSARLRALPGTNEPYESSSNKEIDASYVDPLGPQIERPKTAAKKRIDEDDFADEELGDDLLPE


Assays:
Flag-Amotl1 = molecular target: T1, Flag-Amotl1; test: co-IP
IFT88-GFP = molecular target: T2, IFT88-GFP; test: co-IP

Molecule	binding (Flag-Amotl1)	binding (IFT88-GFP)
IFT20-GFP (from UniProt Q61025 1-132)	binds	
endogenous YAP1 (from UniProt P46937 1-504)	binds	
HA-Amotl1 (protein, UniProt Q9D4H4 1-968) MRRAKSRRGPCEPVLRAPPPICYSPSSPVQILEDPAYFYPDLQLYSGRHEASTLTVEASGGLRGKSVEDPLSSFHSPNFLRTPEVEMRGSEDVASGRVLQRLIQEQLRYGTPTENMNLLAIQHQATGSAGPAHATTNFSSTETLTQEDPQMVYQSARQEPQGQEHQGDNTVMEKQVRSTQPQQNNEELPTYEEAKAQSQFFRGQQQQQQQQQQQQQQQQQQGQGPLSHTYYMAGGTSQKSRTEGRPTVNRANSGQAHKDEALKELKQGHVRSLSERIMQLSLERNGAKQHLPSSGNGKSFKAGGEPSPAQPVCKALDPRGPPPEYPFKTKPMKSPVSKNQDHGLYYNDQHPGVLHEMVKPYPAPQPARTEVAVLRYQPPPEYGVTSRPCQLPFPSTVQQHSPMSSQTSSIGGTLHSVSLPLPLPISLAASQPLPASPNQQLGPDAFAIVERAQQMVEILTEENRVLHQELQGCYDNADKLHKFEKELQSISEAYESLVKSTTKRESLDKAMRTKLEGEIRRLHDFNRDLRDRLETANRQLSSREYDGHEDKAAESHYVSQNKEFLKEKEKLEMELAAVRTASEDHRRHIEILDQALSNAQARVIKLEEELREKQAYVEKVEKLQQALTQLQSACEKRGQMERRLRTWLERELDALRTQQKHGTGPPVSLPECNAPALMELVREKEERILALEADMTKWEQKYLEESTIRHFAMSAAAAATAERDTTISNHSRNGSYGESSLEAHIWPEEEEVVQANRRCQDMEYTIKNLHAKIIEKDAMIKVLQQRSRKDAGKTDSASLRPARSVPSIAAATGTHSRQTSLTSSQLTEEKKEEKTTWKGSIGFLLGKEHQGQASAPLLPTTPASALSLPASTTSASSTHAKTGSKDSSTQTDKSTELFWPSMASLPSRGRLSTAPSNSPILKHPAAKGAVEKQENSPGHGKASEHRGRVSNLLHKPEFPDGEMMEVLI		binds
